From US20200392227A1

Amino acid sequences for entries named in this document (tags omitted). A change or cut given only in a name is not applied to a line headed by its entry.
UniProt P55899: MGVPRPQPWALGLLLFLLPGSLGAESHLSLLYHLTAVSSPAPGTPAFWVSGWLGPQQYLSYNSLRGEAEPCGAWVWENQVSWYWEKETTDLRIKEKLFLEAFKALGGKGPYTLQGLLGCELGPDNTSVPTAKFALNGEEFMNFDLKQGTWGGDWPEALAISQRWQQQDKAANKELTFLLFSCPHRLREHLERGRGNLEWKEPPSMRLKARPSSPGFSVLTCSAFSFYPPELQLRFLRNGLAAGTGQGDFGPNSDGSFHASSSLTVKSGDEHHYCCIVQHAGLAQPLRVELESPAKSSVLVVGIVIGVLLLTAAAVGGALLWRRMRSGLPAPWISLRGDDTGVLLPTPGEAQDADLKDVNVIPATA

Target: human FcRn protein (MednaBio, E1032) (human) (UniProt P55899)
Assay: BLI

binding: binds
B1: anti-CD137 IgG4 with Fc variant G4m2 (antibody)
heavy: EVQLVQSGAEVKKPGESLRISCKGSGYSFSTYWISWVRQMPGKGLEWMGKIYPGDSYTNYSPSFQGQVTISADKSISTAYLQWSSLKASDTAMYYCARGYGIFDYWGQGTLVTVSSASTKGPSVFPLAPCSRSTSESTAALGCLVKDYFPEPVTVSWNSGALTSGVHTFPAVLQSSGLYSLSSVVTVPSSSLGTKTYTCNVDHKPSNTKVDKRVESKYGPPCPPCPAPEFLGPSVFLFPPKPKDTLMISRTPEVTCVVVDVSQEDPEVQFNWYVDGVEVHNAKTKPREEQFNSTYRVVSVLTVLHQDWLNGKEYKCKVSNKGLPSSIEKTISKAKGQPREPQVYTLPPSQEEMTKNQVSLTCLVKGFYPSDIAVEWESNGQPENNYKTTPPVLDSDGSFFLYSRLTVDKSRWQEGNVFSCSVMHEALHNHYTQKSLSLSLGK
light: SYELTQPPSVSVSPGQTASITCSGDNIGDQYAHWYQQKPGQSPVLVIYQDKNRPSGIPERFSGSNSGNTATLTISGTQAMDEADYYCATYTGFGSLAVFGGGTKLTVLGQPKAAPSVTLFPPSSEELQANKATLVCLISDFYPGAVTVAWKADSSPVKAGVETTTPSKQSNNKYAASSYLSLTPEQWKSHRSYSCQVTHEGSTVEKTVAPTECS

These are yes or no findings as the source states them, for the method shown. A result given as binding can be weak or reduced; the word gives no strength. Where a sequence is shown, tags or fusion partners need not be part of it.
